## Screening data

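Genome-wide siRNA knockdown in TC32 Ewing sarcoma cells, comparing luciferase light from an NR0B1-promoter reporter with a CMV-promoter reporter 48 hours after transfection. Each siRNA was applied at 20 nM. A z-score of the log NR0B1-over-CMV signal, less the median of siRNAs with the same seed; more negative means a stronger specific loss of the NR0B1 reporter.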

This is part of the screen; most of the strongest results are not listed here. Sequences are the guide (antisense) strand, without overhang.

UCUCGAAGUACCCAUCUGC against ZNF862 gave seed-corrected z-score -1.07. With UGUGAUGUAAGAAGGAAUC against DESI1 the assay gave seed-corrected z-score -1.112. For ACAGUUAAACUUCAACACC against COA7 the result was seed-corrected z-score 0.5194. UUCUGAUCAAUUGAUUCGG against FNBP1 read seed-corrected z-score -0.2643. For AUACUUCUUCUCGAUUUUG against TAGLN the result was seed-corrected z-score -0.9916. UUUGCUUCCUCCUUAUACG against CTDSP2 gave seed-corrected z-score -1.396. With UAGGUAUGAAGAAUAACAG against TAAR8 the assay gave seed-corrected z-score -0.6727.

UAAUGAAAGUGAGAUAUUG against PTPN2P1 gave seed-corrected z-score 1.383. UAGAUUGACAGCAUGUACU against GDF6 gave seed-corrected z-score -0.2136. With UUUGCGGAAAUAGUCCUGG against CACNA1F the assay gave seed-corrected z-score -0.26. UGUUAAGUGAGGCUAAUAC against TIMM10B read seed-corrected z-score 0.05898. GUUGGGUUCGCCGAAAUCC against LOC644925 read seed-corrected z-score -0.02545. Result for UCUCCAAUCUCUUUUACUC against SIRPD was seed-corrected z-score -0.6034. Result for UCCCGGCACAGAUAUAUCC against FCMR was seed-corrected z-score 0.09899.

For AGAGAAACCCUUGUGCUGC against CFAP74 the result was seed-corrected z-score -0.8502. For UAUCCGAACAGGGAAAGUC against LPIN1 the result was seed-corrected z-score 0.3397. With AUAGGUCCUCCAAUCAUCC against ALDH7A1 the assay gave seed-corrected z-score 2.08. For UUGCGUUCGAUAUAAACCC against RNF144B the result was seed-corrected z-score 0.2426. With UGUAAUCUAAGGUUAUCAC against IFNE the assay gave seed-corrected z-score -0.5019. Result for UAGACUCUCGGGUACUUUG against LURAP1L was seed-corrected z-score -0.1781. With UAUGAAAGGUGGGAUGUGC against PPP1R17 the assay gave seed-corrected z-score 0.3475.

For AAAUCAGUGACCACUGCUC against NCKAP5L the result was seed-corrected z-score 1.135. With UUGGAUCUAAGAGGCCUUC against ERI3 the assay gave seed-corrected z-score 0.5844. With UUCUGUAGUGUGAUAUUGC against C12orf50 the assay gave seed-corrected z-score -0.3016. For UGUCCAGUAGAAGAGGACC against HPS1 the result was seed-corrected z-score 0.7852. For UCUGCGUACACGUUCUACU against MGST1 the result was seed-corrected z-score -0.6704. With UAAAGCAUUGGUAUUUGAC against CERK the assay gave seed-corrected z-score -1.391. AUAGAGACGAGAUCGCAUC against TCF23 gave seed-corrected z-score -0.9614.

Result for UUAGAUGUCAGUGUAGAAG against KATNAL1 was seed-corrected z-score 0.1556. With UUCGCUAACAAAACUAGUG against ATP13A4 the assay gave seed-corrected z-score -0.1366. With UGAAUGAACAUCUGCAAGC against TMEM141 the assay gave seed-corrected z-score -0.178. UGGGAUACAAAGGCUUAGG against KCTD6 gave seed-corrected z-score 0.08519. UUCUUUGACAGUGUCUGCG against HS3ST4 gave seed-corrected z-score -0.2295. For UGAGGUCCAAAGUCAGAGC against KRTAP5-6 the result was seed-corrected z-score 0.5629. UACUCUCUGAAAUUGUUGG against MMP1 gave seed-corrected z-score 0.2053.

Result for UGACUUCAGAGAACGCAUG against PTCH2 was seed-corrected z-score -0.8259. UCAGGUAGCGGUAUGUCUC against KCNJ9 gave seed-corrected z-score 0.2206. For UUCAAUCCAUUGACCAUCC against LOC729369 the result was seed-corrected z-score 1.092. UGCUGCACCAGAAUCUUCA against ASB2 read seed-corrected z-score 0.2738. Result for UGUUCAUAUAGAUCCACUG against KIT was seed-corrected z-score -0.02472. For UAGAUGUCCAUUAAGCUGG against ARSH the result was seed-corrected z-score -0.1402. UUUUGGAUUAGUGCAUUGC against LINC00469 read seed-corrected z-score 0.3762.

Result for UCAUUGGUGACUACUGUGC against FUCA2 was seed-corrected z-score -0.05047.

For reference, 4 entries once more:

strand	target gene	seed-corrected z-score
UGUAAUCUAAGGUUAUCAC	IFNE	-0.5019
UUCUGAUCAAUUGAUUCGG	FNBP1	-0.2643
UUGCGUUCGAUAUAAACCC	RNF144B	0.2426
UGAAUGAACAUCUGCAAGC	TMEM141	-0.178

From PubChem BioAssay record AID1159506 (NCATS, 2015).